Measurements reported in PubChem BioAssay AID1159584 (Peter MacCallum Cancer Centre, 2016)
Shown is one part, drawn at random, of about 18,000 reagents. Not stated in the record: the amount of reagent, the time to read-out.

- Purpose: 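Genes whose loss is lethal only together with E-cadherin loss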 (primary screen)
- Cells: human MCF10A breast epithelial cells, parental and CDH1-null
- Reagents: siRNA against human genes
- Detection: 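Cell viability by CellTiter-Glo ATP luminescence, each line scaled to the mean of mock wells across plates, then CDH1-null over parental ratio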
- Direction: CDH1-null / parental viability ratio: higher = CDH1-null cells survive relatively better than parental; CDH1-null viability vs mock: higher = more viable CDH1-null cells; parental viability vs mock: higher = more viable parental cells

gene | CDH1-null / parental viability ratio | CDH1-null viability vs mock (fraction of mock) | parental viability vs mock (fraction of mock)
PRKCI | 1.04 | 0.96 | 0.92
CCR9 | 0.82 | 0.62 | 0.76
CNFN | 1.08 | 0.8 | 0.74
KLC4 | 0.89 | 0.78 | 0.88
TRDN | 1.25 | 0.7 | 0.56
PDIA5 | 1.25 | 0.8 | 0.64
KRTAP12-4 | 1.04 | 0.77 | 0.74
GIT1 | 0.72 | 0.49 | 0.68
PTRH1 | 0.93 | 0.82 | 0.88
CEACAM16 | 0.85 | 0.71 | 0.84
TMEFF1 | 1.16 | 1 | 0.86
KRTAP5-6 | 1.08 | 0.8 | 0.74
RNASE12 | 0.73 | 0.64 | 0.88
CEBPE | 1.14 | 0.8 | 0.7
OR1K1 | 1.6 | 1.15 | 0.72
SPATA31D1 | 1.13 | 0.51 | 0.45
PLIN5 | 1.25 | 0.65 | 0.52
OR56A3 | 0.84 | 0.82 | 0.98
OSTF1 | 0.73 | 0.6 | 0.82
RGS12 | 0.85 | 0.74 | 0.87
AGBL5 | 1.23 | 0.74 | 0.6
HLA-DRB1 | 0.84 | 0.66 | 0.79
SLC28A3 | 0.97 | 0.64 | 0.66
FIP1L1 | 1.56 | 0.75 | 0.48
ZNF404 | 0.78 | 0.72 | 0.92
SPINK1 | 1.03 | 1.19 | 1.15
DYNLRB2 | 0.77 | 0.6 | 0.78
AXL | 0.81 | 0.64 | 0.79
TRAK2 | 0.68 | 0.54 | 0.79
USP33 | 1.39 | 0.86 | 0.62
ZNF831 | 1.09 | 0.76 | 0.7
KRTAP3-1 | 1.67 | 0.72 | 0.43
C16orf89 | 1 | 0.88 | 0.88
MOS | 0.99 | 0.93 | 0.94
AKAP13 | 0.8 | 0.7 | 0.88
ARCN1 | 1.1 | 0.22 | 0.2
DUS4L | 1.02 | 0.82 | 0.8
AGGF1 | 1.12 | 0.9 | 0.8
PRKACG | 0.95 | 0.88 | 0.93
PLXNB3 | 1.19 | 1.05 | 0.88
FBXO40 | 0.93 | 0.82 | 0.88
OLFM2 | 0.76 | 0.58 | 0.76
NCOR1 | 0.87 | 0.85 | 0.98
PTPN6 | 1.51 | 0.8 | 0.53
CSF1R | 1.7 | 1.09 | 0.64
ATP11AUN | 1.1 | 1.07 | 0.97
TCP11L1 | 1.05 | 0.84 | 0.8
KRT34 | 1.07 | 0.98 | 0.92
STOML2 | 1 | 0.65 | 0.65
BACE1 | 1.53 | 0.49 | 0.32
FMO1 | 1.02 | 0.85 | 0.83
WDR6 | 0.91 | 0.59 | 0.65
ZNF671 | 0.87 | 0.6 | 0.69
DYRK3 | 1.03 | 1.22 | 1.19
ATP1A2 | 1.09 | 1.1 | 1.01
R3HDM4 | 0.79 | 0.71 | 0.9
MPZL1 | 1.14 | 0.89 | 0.78
KRT25 | 0.97 | 0.84 | 0.87
HRNR | 0.99 | 0.7 | 0.71
NT5C2 | 1 | 0.83 | 0.83
ESPNL | 0.54 | 0.28 | 0.52
CCDC80 | 0.98 | 0.8 | 0.82
DNAH9 | 1.13 | 0.53 | 0.47
ANKRD23 | 0.94 | 0.66 | 0.7
PPP1R11 | 1.02 | 0.67 | 0.66
MESD | 1.36 | 1.06 | 0.78
TBC1D10A | 1 | 0.86 | 0.86
CIC | 1.17 | 1.08 | 0.92
